Measured values reported in the supplement of paper PMC10689618.
Structures can show the parent of a compound that is named as a salt. This is one part of the list. Single values are uncertain, as repeats are few or missing.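 Labelled rat cortical synaptosomes were engulfed by primary human fetal astrocytes. Engulfment equaled a red/green ratio, corrected for calcein live-cell signal and normalized to the plate median. Compounds were toxic when calcein dropped over 30%, and reduced phagocytosis when below 70% of the median above 5 µM.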

Tests used:
Human fetal astrocytes [1] = assay: loss of total cells relative to no-compound high-control median (toxicity); higher = more toxic (fewer cells); conditions: 24 h
Human fetal astrocytes [2] = assay: synaptosome phagocytosis (pHrodo/calcein intensity ratio) relative to plate median of data wells; higher = more phagocytosis; conditions: 24 h

Compound | loss of total cells (Human fetal astrocytes [1]; 1.39 µM) [%] | loss of total cells (Human fetal astrocytes [1]; 2.78 µM) [%] | loss of total cells (Human fetal astrocytes [1]; 5.56 µM) [%] | loss of total cells (Human fetal astrocytes [1]; 11.11 µM) [%] | loss of total cells (Human fetal astrocytes [1]; 22.22 µM) [%] | synaptosome phagocytosis (Human fetal astrocytes [2]; 1.39 µM) [%] | synaptosome phagocytosis (Human fetal astrocytes [2]; 2.78 µM) [%] | synaptosome phagocytosis (Human fetal astrocytes [2]; 5.56 µM) [%] | synaptosome phagocytosis (Human fetal astrocytes [2]; 11.11 µM) [%] | synaptosome phagocytosis (Human fetal astrocytes [2]; 22.22 µM) [%]
COc1cc([C@@H]2c3cc4c(cc3[C@@H](O[C@@H]3O[C@@H]5CO[C@@H](C)O[C@H]5[C@H](O)[C@H]3O)[C@H]3COC(=O)[C@H]23)OCO4)cc(OC)c1O [Etoposide] | 3.8 | -17.9 | -5.8 | -14.8 | 6.4 | 107 | 101 | 104 | 121 | 99.9
CN(C)CCOC(=O)COc1ccc(Cl)cc1 [Centrophenoxine hydrochloride] | 22.4 | 0.9 | -1.4 | -10.3 | -10.9 | 66 | 103 | 97.5 | 114 | 105
CC(C)(C)[C@]1(O)CCN2C[C@H]3c4ccccc4CCc4cccc(c43)[C@@H]2C1 [(+)-Butaclamol hydrochloride] | -3.8 | -0.9 | -4.1 | -13 | -20.8 | 88.2 | 109 | 80 | 89.2 | 63.2
CC(C)NCC(O)COc1ccc(CCOCC2CC2)cc1 (stereo not given) [Betaxolol hydrochloride] | 2.2 | -10.8 | -18 | 4 | -7.9 | 110 | 91.8 | 108 | 106 | 120
Nc1ncnc2c1ncn2[C@@H]1O[C@H](CO)[C@@H](O)[C@H]1O [Adenosine] | 2.9 | -9.9 | -25.3 | -4.9 | 11.7 | 138 | 122 | 102 | 110 | 108
O=C(O)c1cc(=O)c2ccccc2[nH]1 [Kynurenic acid] | 0.5 | -11.3 | 8.9 | 4.8 | 8.4 | 107 | 90.3 | 67.5 | 76 | 54.6
C=C[C@H]1CN2CC[C@H]1C[C@@H]2[C@@H](O)c1ccnc2ccc(OC)cc12 [Quinidine sulfate] | -9 | -9.3 | -3.9 | -14.9 | -28.8 | 67.6 | 102 | 89.2 | 90.7 | 97.1
Cn1c(=O)c2nc[nH]c2n(C)c1=O [Theophylline] | -7.8 | -3.3 | -3.9 | 5 | -18.1 | 99.1 | 104 | 110 | 104 | 92.4
Cc1nc(N=Nc2ccc(S(=O)(=O)O)cc2S(=O)(=O)O)c(COP(=O)(O)O)c(C=O)c1O | -7.1 | -11.1 | 1.1 | -4.2 | -32.1 | 84.1 | 92.7 | 71 | 76.1 | 121
CCN1CCc2nc(N)oc2CC1 [B-HT 933 dihydrochloride] | -12.8 | -8.1 | -23.5 | -20.2 | 9.4 | 105 | 77.3 | 107 | 89.1 | 97.1
NC(N)=Nc1nc(CSCC/C(N)=N/S(N)(=O)=O)cs1 [Famotidine] | 4.6 | -3.4 | -5.8 | -5.8 | -18.4 | 96.5 | 114 | 111 | 112 | 88.1
Cc1nc2n(c(=O)c1CCN1CCC(c3noc4cc(F)ccc34)CC1)CCCC2 [Risperidone] | -0.9 | -14.7 | -9.6 | 3.4 | -1.6 | 87.8 | 91.7 | 94 | 114 | 87.9
CSC(=N)NCCC[C@H](N)C(=O)O [S-Methyl-L-thiocitrulline acetate] | -21.3 | -7.7 | 5.2 | 12.4 | 5.6 | 91.5 | 114 | 106 | 103 | 147
CC(=O)C(C)=O [2,3-Butanedione] | -3.8 | -8.5 | 0 | -4.9 | -8.8 | 108 | 124 | 104 | 109 | 107
CCNC(=O)N1CCN(CCCC(c2ccc(F)cc2)c2ccc(F)cc2)CC1 [Amperozide hydrochloride] | -18 | -15.6 | -4.1 | -4.9 | 1.1 | 75.1 | 83 | 99.1 | 99.2 | 94.3
CC(N)=NCCC[C@H](N)C(=O)O [L-N5-(1-Iminoethyl)ornithine hydrochloride] | -11.8 | 1.4 | 8 | -2.9 | 6.5 | 94.1 | 120 | 122 | 145 | 130
CN[C@H](CC(C)C)C(=O)N[C@H]1C(=O)N[C@@H](CC(N)=O)C(=O)N[C@H]2C(=O)N[C@H]3C(=O)N[C@H](C(=O)N[C@H](C(=O)O)c4cc(O)cc(O)c4-c4cc3ccc4O)[C@H](O)c3ccc(c(Cl)c3)Oc3cc2cc(c3O[C@@H]2O[C@H](CO)[C@@H](O)[C@H](O)[C@H]2O[C@H]2C[C@](C)(N)[C@H](O)[C@H](C)O2)Oc2ccc(cc2Cl)[C@H]1O [Vancomycin hydrochloride from Streptomyces orientalis] | -24.5 | -18.3 | -11.2 | -5 | -58.4 | 111 | 91.2 | 88.3 | 101 | 97.5
CCCCC1(C2CCCC2)Cc2cc(OCC(=O)O)c(Cl)c(Cl)c2C1=O (stereo in doubt) [R(+)-Butylindazone] | -2.1 | -7.7 | -7.4 | -18.4 | 1.6 | 86.7 | 98.8 | 118 | 108 | 115
CC(=O)N1CCN(c2ccc(OCC3COC(Cn4ccnc4)(c4ccc(Cl)cc4Cl)O3)cc2)CC1 (stereo not given) [Ketoconazole] | 4.3 | -4.1 | -3.3 | 20 | 32.7 | 96.5 | 96 | 117 | 102 | 88.4

Two compounds drawn at random from those above:
Compound | loss of total cells (Human fetal astrocytes [1]; 1.39 µM) [%] | loss of total cells (Human fetal astrocytes [1]; 2.78 µM) [%] | loss of total cells (Human fetal astrocytes [1]; 5.56 µM) [%] | loss of total cells (Human fetal astrocytes [1]; 11.11 µM) [%] | loss of total cells (Human fetal astrocytes [1]; 22.22 µM) [%] | synaptosome phagocytosis (Human fetal astrocytes [2]; 1.39 µM) [%] | synaptosome phagocytosis (Human fetal astrocytes [2]; 2.78 µM) [%] | synaptosome phagocytosis (Human fetal astrocytes [2]; 5.56 µM) [%] | synaptosome phagocytosis (Human fetal astrocytes [2]; 11.11 µM) [%] | synaptosome phagocytosis (Human fetal astrocytes [2]; 22.22 µM) [%]
C=C[C@H]1CN2CC[C@H]1C[C@@H]2[C@@H](O)c1ccnc2ccc(OC)cc12 [Quinidine sulfate] | -9 | -9.3 | -3.9 | -14.9 | -28.8 | 67.6 | 102 | 89.2 | 90.7 | 97.1
O=C(O)c1cc(=O)c2ccccc2[nH]1 [Kynurenic acid] | 0.5 | -11.3 | 8.9 | 4.8 | 8.4 | 107 | 90.3 | 67.5 | 76 | 54.6

Remaining list, next part.

Compound | loss of total cells (Human fetal astrocytes [1]; 1.39 µM) [%] | loss of total cells (Human fetal astrocytes [1]; 2.78 µM) [%] | loss of total cells (Human fetal astrocytes [1]; 5.56 µM) [%] | loss of total cells (Human fetal astrocytes [1]; 11.11 µM) [%] | loss of total cells (Human fetal astrocytes [1]; 22.22 µM) [%] | synaptosome phagocytosis (Human fetal astrocytes [2]; 1.39 µM) [%] | synaptosome phagocytosis (Human fetal astrocytes [2]; 2.78 µM) [%] | synaptosome phagocytosis (Human fetal astrocytes [2]; 5.56 µM) [%] | synaptosome phagocytosis (Human fetal astrocytes [2]; 11.11 µM) [%] | synaptosome phagocytosis (Human fetal astrocytes [2]; 22.22 µM) [%]
CCCn1c(=O)c2c(ncn2C)n(CCC)c1=O [1,3-Dipropyl-7-methylxanthine] | -21.3 | -24.8 | -2.5 | -22.9 | -5.6 | 93.1 | 76.2 | 93 | 124 | 106
O=c1[nH]c2ccccc2c2ccccc12 [6(5H)-Phenanthridinone] | -0.9 | -12.3 | 4.5 | 12.6 | -2.5 | 114 | 111 | 122 | 97.6 | 88.1
CCCCCCCCCC(=O)NC(CN1CCOCC1)[C@H](O)c1ccccc1 (mixture of isomers) | -2.8 | -11.1 | -12.9 | 8 | -20.6 | 110 | 117 | 106 | 90.1 | 91.5
O=C(O)C1CCNCC1 [Isonipecotic acid] | -12.8 | -14 | -0.5 | 10.5 | 1.9 | 129 | 130 | 116 | 112 | 91.1
Cl.N[C@@H](CCC(=O)O)C(=O)O [L-Glutamic acid hydrochloride] | 1.3 | -14.5 | 7.4 | -17.5 | 2.4 | 107 | 110 | 75.1 | 103 | 92.9
CCSC(N)=Nc1ccc(C(F)(F)F)cc1 [TFPI hydrochloride] | -17.7 | -30.8 | -9 | -15.7 | -27.2 | 118 | 123 | 104 | 93.9 | 122
C/C=C1\C(=O)C[C@H]2[C@@H]3CCC4=CC(=O)CC[C@]4(C)[C@H]3CC[C@]12C [(Z)-Gugglesterone] | 9.6 | -17.9 | -14 | 1.3 | 4 | 132 | 118 | 97.6 | 95.3 | 123
Cc1c(C)c2c(c(C)c1O)CCC(C)(CN1CCN(c3cc(N4CCCC4)nc(N4CCCC4)n3)CC1)O2 (stereo not given) | -32.6 | -29.6 | -0.6 | 38.7 | 49.4 | 90.2 | 99.9 | 81.4 | 11.1 | 25.2
CN(C)CCCN1c2ccccc2Sc2ccc(Cl)cc21 [Chlorpromazine hydrochloride] | -15.8 | -5.1 | -13.4 | -8.5 | 15.4 | 84.7 | 101 | 76.2 | 101 | 75.1
O=c1[nH]c2ccccc2n1CCCN1CCN(C(c2ccccc2)c2ccccc2)CC1 [Oxatomide] | -36.5 | 19.5 | 17.4 | 13.3 | 24.3 | 82.4 | 110 | 143 | 98.3 | 87.9
CC1(C2CCCC2)Cc2cc(OCC(=O)O)c(Cl)c(Cl)c2C1=O (stereo not given) | 26.1 | 18.6 | -3.3 | 25.7 | 22.4 | 41.7 | 59.6 | 79.8 | 88.3 | 67
COC(=O)Nc1nc2cc(C(=O)c3cccs3)ccc2[nH]1 [Nocodazole] | -21.3 | -5.9 | -22.1 | 1 | 0.9 | 94.2 | 97.4 | 124 | 120 | 112
CCCn1c(=O)c2[nH]c(C3CCCC3)nc2n(CCC)c1=O [8-Cyclopentyl-1,3-dipropylxanthine] | 13 | -14.5 | 4.1 | 8.5 | -5.6 | 109 | 74.3 | 118 | 131 | 92.4
C[C@H](O)C(=O)C1=Nc2c(nc(N)[nH]c2=O)NC1 [Sepiapterin] | -10.9 | -9.3 | -19.7 | -10.3 | 0 | 105 | 126 | 127 | 81.1 | 98.5
CC(C)(CO)Cc1cc(C(C)(C)C)c(O)c(C(C)(C)C)c1 | -18 | -20.5 | -4.1 | -12.1 | -10.2 | 96.9 | 87.8 | 114 | 109 | 106
COc1ccc(CC(C)NCC(O)c2ccc(O)c(NC=O)c2)cc1 (stereo not given) [Formoterol] | 3.8 | 5.1 | 23 | -10.3 | -2.4 | 112 | 102 | 92.9 | 135 | 122
OC[C@H]1NC[C@@H](O)[C@@H]1O [1,4-Dideoxy-1,4-imino-D-arabinitol] | -4.6 | -8.5 | -14 | -3.1 | -11.2 | 91 | 124 | 91 | 82.3 | 109
COc1cccc(-c2cc(=O)c3ccccc3o2)c1N | -5.3 | -3.9 | -15.7 | -31 | -47.7 | 77.8 | 110 | 83.9 | 100 | 137
